The source of these data is publication PMC10541558.

The chains behind the UniProt entries cited, without tags or fusion partners. Where a name states a change or a piece, a line headed by the entry shows the natural chain unless it says otherwise.
UniProt A0A2I4H1P2: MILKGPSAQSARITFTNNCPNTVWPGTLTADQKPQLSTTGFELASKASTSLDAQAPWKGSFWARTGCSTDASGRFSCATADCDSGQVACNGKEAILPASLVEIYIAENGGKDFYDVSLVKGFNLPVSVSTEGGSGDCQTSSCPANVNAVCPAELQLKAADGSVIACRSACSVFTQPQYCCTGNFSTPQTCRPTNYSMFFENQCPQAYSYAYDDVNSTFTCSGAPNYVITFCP

The test addresses JrCCR4-GST recombinant protein (walnut (Juglans regia L.)). Kind of test: pull-down; His-tagged and GST-tagged proteins mixed at a ratio of 1:1, purified with Glutathione-Sepharose Resin, Western blotting; both purified. (Immunoblotting shows a protein as a band on a membrane.)

No constants are given. Whether binding was seen depends on the method and setting. A result given as binding can be weak or reduced; the word gives no strength.

Turning to “JrTLP1b with HIS tag, recombinant protein (from UniProt A0A2I4H1P2)”, the binding result is “binds”.
